For the assay, the target named is T1, CD44 (cluster of differentiation 44) (human, UniProt P16070 21-742).
T1 construct: whole, on cells; Endogenous target on human HCC cells and tissues; no recombinant protein was used
As to the kind of experiment: fluorescence microscopy, 5 uM on CCA-156 cells.

Sequences of proteins named here, by UniProt entry; tags and fusion partners are left off. Residues count along the entry.
UniProt P16070, residues 21-742: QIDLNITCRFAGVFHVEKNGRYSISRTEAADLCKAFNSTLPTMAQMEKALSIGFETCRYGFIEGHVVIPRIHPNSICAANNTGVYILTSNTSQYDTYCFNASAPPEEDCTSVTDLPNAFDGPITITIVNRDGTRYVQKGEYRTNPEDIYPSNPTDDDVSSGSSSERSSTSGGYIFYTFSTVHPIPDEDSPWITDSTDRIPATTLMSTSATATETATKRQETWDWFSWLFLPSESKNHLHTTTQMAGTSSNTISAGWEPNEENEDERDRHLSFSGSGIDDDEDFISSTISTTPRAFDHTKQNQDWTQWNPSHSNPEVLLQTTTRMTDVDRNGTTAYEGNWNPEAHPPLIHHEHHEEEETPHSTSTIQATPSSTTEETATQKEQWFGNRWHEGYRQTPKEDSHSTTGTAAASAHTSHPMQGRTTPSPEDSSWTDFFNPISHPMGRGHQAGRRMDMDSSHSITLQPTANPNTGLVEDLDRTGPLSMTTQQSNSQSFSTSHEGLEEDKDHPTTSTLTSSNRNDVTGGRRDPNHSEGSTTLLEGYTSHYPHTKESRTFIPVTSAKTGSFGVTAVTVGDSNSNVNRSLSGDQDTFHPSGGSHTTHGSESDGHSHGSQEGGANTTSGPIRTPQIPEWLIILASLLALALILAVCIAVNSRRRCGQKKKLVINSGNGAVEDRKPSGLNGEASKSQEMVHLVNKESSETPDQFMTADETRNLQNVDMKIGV

Results are given in words; binding and its absence hold for the method and conditions named. Some entries that bind do so weakly or less than the wild type.

Regarding WKGWSYLWTQQA (Cy5.5 label; site of attachment and any linker not stated) [WKG*-Cy5.5 (Cy5.5-labeled CD44 peptide monomer, …)], the binding result is given as “binds”.

(Values after US20260248969A1, “PEPTIDE MULTIMER PRODUCTS AND METHODS” (REGENTS OF THE UNIVERSITY OF MICHIGAN, priority 2023, published 2026).)
